Laboratory results reported in article PMC11335208.
Results are given in words; binding and its absence hold for the method and conditions named. In cells and extracts the contact can be indirect. Some entries that bind do so weakly or less than the wild type.

Amino acid sequences for entries named in this document (tags omitted).
UniProt Q8NFU7: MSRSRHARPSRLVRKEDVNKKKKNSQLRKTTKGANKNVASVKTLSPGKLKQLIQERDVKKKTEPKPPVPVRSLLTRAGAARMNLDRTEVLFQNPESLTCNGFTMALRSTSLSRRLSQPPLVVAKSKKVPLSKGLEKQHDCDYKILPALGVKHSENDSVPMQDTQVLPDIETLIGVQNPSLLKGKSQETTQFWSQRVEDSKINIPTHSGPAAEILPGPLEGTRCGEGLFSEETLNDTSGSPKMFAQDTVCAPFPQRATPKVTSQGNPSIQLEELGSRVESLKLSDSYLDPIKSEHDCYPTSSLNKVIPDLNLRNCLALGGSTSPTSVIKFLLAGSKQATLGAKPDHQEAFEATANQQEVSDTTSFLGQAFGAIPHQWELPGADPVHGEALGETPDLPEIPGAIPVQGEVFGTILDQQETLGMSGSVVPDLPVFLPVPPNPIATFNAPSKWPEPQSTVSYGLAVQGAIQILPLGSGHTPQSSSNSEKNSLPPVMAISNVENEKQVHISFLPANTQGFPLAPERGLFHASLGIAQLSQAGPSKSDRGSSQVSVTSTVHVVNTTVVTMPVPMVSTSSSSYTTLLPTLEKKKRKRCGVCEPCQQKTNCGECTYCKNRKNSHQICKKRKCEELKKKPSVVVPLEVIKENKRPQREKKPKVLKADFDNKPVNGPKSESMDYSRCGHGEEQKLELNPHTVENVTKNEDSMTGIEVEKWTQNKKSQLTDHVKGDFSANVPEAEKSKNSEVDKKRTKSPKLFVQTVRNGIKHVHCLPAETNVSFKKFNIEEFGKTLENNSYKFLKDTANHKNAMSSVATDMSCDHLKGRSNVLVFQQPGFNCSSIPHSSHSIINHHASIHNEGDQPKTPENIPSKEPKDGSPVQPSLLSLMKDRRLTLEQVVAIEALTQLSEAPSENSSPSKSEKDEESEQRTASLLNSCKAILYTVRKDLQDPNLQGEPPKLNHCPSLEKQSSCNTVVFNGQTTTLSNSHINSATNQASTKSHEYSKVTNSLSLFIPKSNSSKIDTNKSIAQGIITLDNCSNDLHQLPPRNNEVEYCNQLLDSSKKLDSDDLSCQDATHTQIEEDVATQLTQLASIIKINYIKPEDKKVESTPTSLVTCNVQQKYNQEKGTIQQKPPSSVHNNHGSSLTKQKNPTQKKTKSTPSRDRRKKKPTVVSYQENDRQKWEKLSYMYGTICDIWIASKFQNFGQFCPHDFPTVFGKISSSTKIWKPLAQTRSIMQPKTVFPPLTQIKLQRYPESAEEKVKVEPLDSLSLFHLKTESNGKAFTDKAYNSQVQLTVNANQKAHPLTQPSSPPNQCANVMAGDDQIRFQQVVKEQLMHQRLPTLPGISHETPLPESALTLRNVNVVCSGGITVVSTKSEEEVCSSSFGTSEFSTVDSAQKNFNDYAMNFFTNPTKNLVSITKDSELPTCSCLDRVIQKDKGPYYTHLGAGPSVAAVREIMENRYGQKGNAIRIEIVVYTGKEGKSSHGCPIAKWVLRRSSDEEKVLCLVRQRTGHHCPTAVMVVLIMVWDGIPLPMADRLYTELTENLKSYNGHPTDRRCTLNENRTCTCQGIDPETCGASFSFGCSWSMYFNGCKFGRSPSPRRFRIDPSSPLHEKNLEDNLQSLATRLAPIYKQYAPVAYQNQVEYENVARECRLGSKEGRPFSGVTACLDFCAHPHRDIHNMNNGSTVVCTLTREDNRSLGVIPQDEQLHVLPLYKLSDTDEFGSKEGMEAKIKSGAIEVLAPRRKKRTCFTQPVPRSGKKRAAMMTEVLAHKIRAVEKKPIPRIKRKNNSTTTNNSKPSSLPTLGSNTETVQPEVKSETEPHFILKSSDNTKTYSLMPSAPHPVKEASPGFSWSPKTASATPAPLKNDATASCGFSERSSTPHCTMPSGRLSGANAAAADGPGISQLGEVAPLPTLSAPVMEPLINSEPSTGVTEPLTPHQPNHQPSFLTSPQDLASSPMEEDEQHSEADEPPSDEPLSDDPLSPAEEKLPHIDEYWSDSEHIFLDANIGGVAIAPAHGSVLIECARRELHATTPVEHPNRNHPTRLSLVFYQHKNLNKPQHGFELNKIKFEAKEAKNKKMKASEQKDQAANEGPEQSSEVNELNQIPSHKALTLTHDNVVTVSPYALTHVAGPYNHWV
UniProt P46937: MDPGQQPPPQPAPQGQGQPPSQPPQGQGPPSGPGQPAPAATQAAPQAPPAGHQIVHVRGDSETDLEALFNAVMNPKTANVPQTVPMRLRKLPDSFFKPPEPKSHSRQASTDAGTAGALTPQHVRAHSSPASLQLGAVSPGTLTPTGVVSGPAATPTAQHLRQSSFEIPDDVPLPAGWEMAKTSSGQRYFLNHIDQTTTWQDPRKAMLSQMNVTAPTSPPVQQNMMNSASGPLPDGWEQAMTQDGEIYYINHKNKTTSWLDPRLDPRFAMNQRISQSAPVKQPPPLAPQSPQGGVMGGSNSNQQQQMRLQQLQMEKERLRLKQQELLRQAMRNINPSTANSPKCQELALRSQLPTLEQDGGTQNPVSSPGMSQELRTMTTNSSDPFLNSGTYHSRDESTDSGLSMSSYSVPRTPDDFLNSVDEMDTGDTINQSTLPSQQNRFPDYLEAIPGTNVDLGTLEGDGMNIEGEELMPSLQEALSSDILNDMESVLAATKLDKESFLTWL

Target: endogenous TET1 (Ten-eleven translocation protein 1) (human (endogenous in Huh-7)) (UniProt Q8NFU7)
Test: co-IP; immunoprecipitation of endogenous proteins from nuclear extracts of sorafenib-resistant Huh-7 cells; IP of YAP1 and, in turn, IP of TET1

Substance: endogenous YAP1 (Yes-associated protein 1) (from UniProt P46937 1-504)
- binding: binds
